# Experimental data as given in PubChem BioAssay AID2417 (National Center for Advancing Translational Sciences (NCATS), 2010).
# Among all 140,000 compounds or so, about 4,300 (3.1%) were called active. This list was built around the results that the source calls inconclusive (neither active nor inactive); the mix of calls is not that of the screen.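 The calls were made as follows: active = readout at or below -70, meaning at least 70% loss of cells showing the perinucleolar compartment, a nuclear body marking cancer cells; inconclusive = readout between -30 and a set limit; inactive = the rest.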
# Experiment: High Content Assay for Compounds that inhibit the Assembly of the Perinucleolar Compartment;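 also: plate controls were DMSO wells for no effect and camptothecin positive control wells for full effect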
# Details: PC3M PTB-GFP, PNC prevalence imaging, 16 h; at 10 µM; active compounds read low
# Procedure, shortened: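 PC3M cells stably expressing PTB-GFP, 750–1000 cells/well, treated 16 h at 37 °C with compound (23 nl of library stock), in duplicate. After paraformaldehyde fixation and Hoechst stain, imaged at 20x; PNC prevalence scored by image analysis.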
row,Compound,"activity change (PNC), negative = inhibition"
1,CC(C)OC(=S)N/C(=N\S(=O)(=O)c1ccccc1)c1ccccc1,inactive: 34.7%
2,CCOc1ccc(CC(=O)Nc2c(C(N)=O)oc3ccc(Br)cc23)cc1OCC,inconclusive: -52.5%
3,O=C(NC1CCCC1)c1ccc(CSCc2ccccc2F)o1,inconclusive: -46.6%
4,Cn1c(=O)c(Sc2ccc(Cl)cc2)c(O)c2ccccc21,inactive: -25.4%
5,COC(=O)c1ccc(N2C(=O)CC(N3CCOCC3)C2=O)cc1 (stereo not drawn),inconclusive: -64.6%
6,O=C(COC(=O)c1ccccc1)Nc1ccccc1Sc1ccccc1,inconclusive: -32.9%
7,O=Cc1ccc(OC(=O)c2cc(Cl)nc3ccccc23)cc1,inactive: -10.7%
8,O=C1OC(c2ccccc2)=NC12CC2c1ccc(Cl)cc1 (stereo not drawn),inactive: -10.5%
9,CC(=O)Nc1ccc(NC(=O)COC(=O)Cc2cccs2)cc1,inactive: 21%
10,Cn1c(NC(=O)Cc2cccs2)cc(=O)n(C)c1=O,inconclusive: -31.8%
11,Cc1ccc(OCCCC(=O)Nc2ccc(S(=O)(=O)Nc3cc(C)on3)cc2)cc1,inconclusive: -57.1%
12,CCOC(=O)C1CCN(S(=O)(=O)c2ccc(OCC)cc2)CC1,inactive: -2.74%
13,CCSc1nc(N)c(C#N)c(-c2ccccc2Cl)c1C#N,inactive: 30.9%
14,Cc1cccc(NC(=O)CCN2C(=O)C3C4CCC(C4)C3C2=O)c1C (stereo not drawn),inactive: 17.9%
15,COc1ccc(-c2ccc(C3C(C#N)=C(N)Oc4n[nH]c(C)c43)o2)cc1 (stereo not drawn),inactive: 29.2%
16,CCCCCCCCCC[n+]1cccc(C(=O)N(CC)CC)c1,inconclusive: -55.1%
17,COc1ccc(NC(=S)N(CCCN2CCOCC2)Cc2cn(C)c3ccccc23)cc1OC,inactive: 13.7%
18,C/C(=N\Nc1nc(-c2ccc(C)cc2)nc2ccccc12)c1ccc([N+](=O)[O-])cc1,inconclusive: -43.5%
19,CCC(C)(C)NC(=O)/C=C/c1cccs1,inconclusive: -56.9%
20,Cc1nn(CCO)c2nc(-c3cccs3)cc(C(F)(F)F)c12,inactive: -11.2%

# Taken from the results shown (4 entries):
row,Compound,"activity change (PNC), negative = inhibition"
4,Cn1c(=O)c(Sc2ccc(Cl)cc2)c(O)c2ccccc21,inactive: -25.4%
5,COC(=O)c1ccc(N2C(=O)CC(N3CCOCC3)C2=O)cc1 (stereo not drawn),inconclusive: -64.6%
6,O=C(COC(=O)c1ccccc1)Nc1ccccc1Sc1ccccc1,inconclusive: -32.9%
7,O=Cc1ccc(OC(=O)c2cc(Cl)nc3ccccc23)cc1,inactive: -10.7%

# Following part

row,Compound,"activity change (PNC), negative = inhibition"
1,COc1ccccc1NC(=O)COC(=O)c1ccc2c(c1)nc(C)n2-c1ccccc1,inconclusive: -53.7%
2,O=C(Nc1ccccc1)c1cnc(-c2ccccc2)nc1-c1ccccc1,inconclusive: -57.9%
3,CCc1nc(Sc2nnnn2-c2ccccc2)c2c3c(sc2n1)CCCC3,inconclusive: -42.5%
4,COc1ccc(N2CCN(Cc3cc(OC)c(O)c([N+](=O)[O-])c3)CC2)cc1,inconclusive: -40%
5,CCc1ccccc1NC(=S)N(Cc1cccnc1)Cc1ccco1,inconclusive: -43.7%
6,Cc1c(Br)c(C(=O)NCc2cc3cc(Cl)ccc3[nH]2)nn1C,inconclusive: -64.6%
7,Cn1cnnc1SCC(=O)N1N=C2/C(=C/c3ccco3)CCCC2C1c1ccco1 (stereo not drawn),inconclusive: -54.8%
8,OCC#CCSc1nnc(-c2ccccc2Br)o1,inactive: 7.03%
9,CC1(C)CC(NC(=O)C23CCC(C)(/C(=N/O)C2)C3(C)C)CC(C)(C)N1 (stereo not drawn),active: -118%
10,CCOC(=O)/C(C#N)=C\C1=C(N2CCCC2)CC(C)(CC)OC1 (stereo not drawn),inconclusive: -34.6%
11,O=C(CN1CCN(S(=O)(=O)c2ccc3ccccc3c2)CC1)N1CCc2ccccc2C1,inconclusive: -58.4%
12,Cc1ccccc1OCCCC(=O)NCc1ccco1,inactive: 14.7%
13,O=C(CN1C(=O)c2ccccc2C1=O)Nc1nnc(C2CCCO2)s1 (stereo not drawn),inconclusive: -41.6%
14,Cc1cc(C(F)F)n2ncc(C(=O)O)c2n1,inactive: 57.2%
15,CCOc1ccc(Nc2nc3c(c(=O)[nH]2)CCCC3)cc1,inconclusive: -42%
16,Cc1ccc(NS(=O)(=O)c2ccc(C(=O)N3CCCN(C)CC3)cc2)cc1,active: -100%
17,OCCCCNCc1ccc(OCc2ccccc2Cl)cc1,inconclusive: -68.4%
18,CCCCNc1ncnc2c1cnn2-c1ccc(C)cc1C,inconclusive: -61.2%
19,CCOC(=O)C1=C(C)N(C)C(=S)NC1c1ccc(Cl)cc1Cl (stereo not drawn),inconclusive: -34.3%
20,COc1cccc(/C=N/Nc2ncnc3scc(-c4ccccc4)c23)c1O,active: -101%

row,Compound,"activity change (PNC), negative = inhibition"
1,Cc1ccc(CSc2nc3c(cc2C#N)CCC3)cc1,inactive: 10.7%
2,N/C(=N\NC(=O)c1cccs1)c1cc2ccccc2oc1=O,inconclusive: -58.7%
3,COc1ccccc1CNC(=O)C1COc2ccccc2O1 (stereo not drawn),inactive: -19.4%
4,CCOC(=O)c1[nH]c2ccc(OC)cc2c1NC(=O)CN1CCC2(CC1)OCCO2,inconclusive: -41.2%
5,COc1ccc(NC(=O)CN2CCCC(C)C2)c([N+](=O)[O-])c1 (stereo not drawn),inconclusive: -79.5%
6,CCOc1ccc(NC(=O)COc2ccc(C(=O)NC3CCCc4ccccc43)cc2OC)cc1 (stereo not drawn),inconclusive: -58%
7,CCn1cc(C(=O)N2CCc3ccccc3C2)c(=O)c2cc(S(=O)(=O)N3CCCCC3)ccc21,inactive: 43.8%
8,N/C(=N\OS(=O)(=O)c1ccc(Br)cc1)c1ccncc1,inconclusive: -32.1%
9,O=C(COC(=O)CNC(=O)c1sc2ccccc2c1Cl)Nc1c(Cl)cc(Cl)cc1Cl,inactive: -26.1%
10,COc1ccc(Cl)cc1NC(=O)C1CCCN(S(=O)(=O)c2cccc3nonc23)C1 (stereo not drawn),active: -100%
11,C=CCOC(=O)C1CC=CCC1C(=O)Oc1ccc(F)cc1F (stereo not drawn),inactive: -13.2%
12,COc1ccc(-c2cc(=O)[nH][nH]2)cc1,inactive: -4.28%
13,O=C1c2ccccc2-c2ccc(C(=O)N3CCOCC3)cc21,inconclusive: -66.5%
14,Cc1ccc(N2C(=O)C(Cl)=C(Nc3c(C)n(C)n(-c4ccccc4)c3=O)C2=O)cc1,inconclusive: -38.8%
15,COc1ccc2c3c(c(=O)oc2c1OCC(=O)C(C)(C)C)CCCC3,inconclusive: -36.4%
16,CCCOc1ccc(C2NC(=S)NC(c3ccccc3)=C2C(=O)Nc2ccc(C)cc2)cc1OC (stereo not drawn),inconclusive: -38.5%
17,COc1ccccc1C(c1nnnn1Cc1ccccc1)N1CCN(c2nc3ccccc3s2)CC1 (stereo not drawn),inconclusive: -36%
18,Nc1nnc(SCc2cc3c(cc2Cl)OCO3)s1,inconclusive: -40%
